Reference: patent EP4778539A1
Changes are numbered by the printed parent chain. Results are given in words; binding and its absence hold for the method and conditions named. Some binding calls cover weakened binding; strength is not graded here.

T1: human CAPRIN-1 on the cell membrane surface of human cancer cells (human) (UniProt Q14444)
T1 sequence (looked up): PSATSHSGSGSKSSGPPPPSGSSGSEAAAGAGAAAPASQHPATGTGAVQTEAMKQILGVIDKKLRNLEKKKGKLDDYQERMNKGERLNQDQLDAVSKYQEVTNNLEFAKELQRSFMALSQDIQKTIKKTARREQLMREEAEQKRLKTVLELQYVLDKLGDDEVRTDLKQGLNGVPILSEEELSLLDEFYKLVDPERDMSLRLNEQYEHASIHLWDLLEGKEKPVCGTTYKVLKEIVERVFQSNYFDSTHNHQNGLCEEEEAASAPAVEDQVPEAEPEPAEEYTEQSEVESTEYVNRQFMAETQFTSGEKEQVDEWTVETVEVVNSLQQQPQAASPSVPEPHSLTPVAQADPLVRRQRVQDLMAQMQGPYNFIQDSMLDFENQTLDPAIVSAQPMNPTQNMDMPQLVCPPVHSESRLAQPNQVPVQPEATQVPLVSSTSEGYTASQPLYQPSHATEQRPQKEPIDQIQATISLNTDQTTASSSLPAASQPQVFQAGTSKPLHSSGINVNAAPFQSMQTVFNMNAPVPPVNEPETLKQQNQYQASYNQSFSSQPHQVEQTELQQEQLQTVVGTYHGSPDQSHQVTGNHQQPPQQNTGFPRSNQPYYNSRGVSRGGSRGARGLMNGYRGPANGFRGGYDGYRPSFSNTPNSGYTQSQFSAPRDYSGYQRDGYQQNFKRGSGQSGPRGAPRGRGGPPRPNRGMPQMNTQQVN

T2: mouse CAPRIN-1 on the cell membrane surface of mouse cancer cells (mouse) (UniProt Q60865)
T2 sequence (looked up): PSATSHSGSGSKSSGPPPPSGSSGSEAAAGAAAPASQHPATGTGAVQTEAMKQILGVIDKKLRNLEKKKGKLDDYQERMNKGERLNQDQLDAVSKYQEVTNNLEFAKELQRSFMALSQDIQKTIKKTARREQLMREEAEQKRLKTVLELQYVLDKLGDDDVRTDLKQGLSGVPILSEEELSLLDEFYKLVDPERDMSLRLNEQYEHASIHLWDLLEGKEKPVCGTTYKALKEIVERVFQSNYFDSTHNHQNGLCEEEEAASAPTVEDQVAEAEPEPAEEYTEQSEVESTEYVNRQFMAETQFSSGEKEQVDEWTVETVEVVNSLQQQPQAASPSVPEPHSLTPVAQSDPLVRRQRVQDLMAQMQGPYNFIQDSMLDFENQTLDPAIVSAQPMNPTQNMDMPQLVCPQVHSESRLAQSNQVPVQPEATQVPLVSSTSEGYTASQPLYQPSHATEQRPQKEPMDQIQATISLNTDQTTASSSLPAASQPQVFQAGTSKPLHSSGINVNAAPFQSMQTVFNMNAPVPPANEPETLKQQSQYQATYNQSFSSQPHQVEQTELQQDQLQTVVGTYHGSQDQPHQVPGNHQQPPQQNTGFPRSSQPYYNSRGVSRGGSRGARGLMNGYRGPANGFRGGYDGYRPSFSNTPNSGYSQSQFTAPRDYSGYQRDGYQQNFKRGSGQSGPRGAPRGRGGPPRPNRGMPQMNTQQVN

B1: humanized antibody complex #46 (antibody, human IgG1, V domains shown)
VH: GAELVRSGASVKMSCKASGYSFTDYNMYWVKQTPGQGLEWIGYIYPGNGGTNYNQKFKGKATLTADTSSSTAYMQISSLTSEDSAVYFCARDYDDGGYAMDYWGQGTTVTVSS
VL: DIQMTQSPASLSASVGETVTITCRASGNIHNYLTWYQQKQGKSPQLLVYNAKTLADGVPSRFSGSGSGTQYSLKINRLQPEDFGSYYCQHFWNIPWTFGGGTKLNSR
B2: humanized antibody complex #47 (antibody, human IgG1, V domains shown)
VH: DAELVKPGASVKISCKASGYTFTDHSIHWVQQKPEQGLEWIGYISPGNGNIKYNEKFKGKATLTADKSSSTAYMQLNSLTSEDSAVYFCKRSLGRGGPYYFDYWGQGTTVTVSS
VL: DIVLTQAAPSLPVTPGESVSISCRSSKSLLHSNGNTYLYWFLQRPGQSPQLLIYRMSNLASGVPDRFSGSGSGTAFTLRISRVEAEDVGVYYCMQHREYPVTFGSGPN
B3: humanized antibody complex #63 (antibody, human IgG1, V domains shown)
VH: GPDLVKPGASVKISCKASGYSFTAYYMHWVKQSHGKSLEWIGRVNPNNGGTTYNQKFKGKAILTVDKSSSTAYMELRSLTFEDSAVYYCARRIYYGYFDYWGQGTTVTVSS
VL: AFFAVSLGQRATISCKASQSVDYDGDSYMNWYQQKPGQPPKLLIYVASNLESGVPARFSGSGSGTDFTLNIHPVEEEDAATYYCQQSNEDPYTFGGGTKLEIKQ
B4: humanized antibody complex #69 (antibody, human IgG1, V domains shown)
VH: EVQLVESGGGLVQPGGSLRLSCAASGFSLSSHSLGWVRQAPGKGLEWIGDIRSGGSAYYANWAKGRFTISRDNSKNTLYLQMNSLRAEDTAVYYCTRTNGPSDLTNRLDLWGQGTLVTVSS
VL: QVLTQSPSSLSASVGDRVTINCQASQSLYNNENLAWFQQKPGKVPKRLIYGASTLASGVSSRFSGSGSGTEFTLTISSLQCEDFAIYYCLGEFSCGSADCFAFGGGTKVEIK
B5: humanized antibody complex #70 (antibody, human IgG1, V domains shown)
VH: B4 VH with Y94F
VL: B4 VL
B6: humanized antibody complex #71 (antibody, human IgG1, V domains shown)
VH: B4 VH
VL: EQVLTQSPSSLSASVGDRVTINCQASQSLYNNENLAWFQQKPGKVPKRLIYGASTLASGVSSRFSGSGSGTEFTLTISNLQPEDFAIYYCLGEFSCGSADCFAFGGGTKVEIK
B7: humanized antibody complex #72 (antibody, human IgG1, V domains shown)
VH: B4 VH with Y94F
VL: B6 VL with Q2I, I87T
B8: humanized antibody complex #73 (antibody, human IgG1, V domains shown)
VH: B4 VH
VL: B6 VL with Q2I, I87T
B9: humanized antibody complex #74 (antibody, human IgG1, V domains shown)
VH: B4 VH with Y94F
VL: B6 VL
B10: Fab complex #9 (Fab, V domains shown)
VH: AVTLDESGGGLQTPGGALSLVCKASGFTFSGYDMLWVRQAPGKGLEWVAGIGSTGGGTDYGAAVKGRATISRDNGQSTVRLQLNNLRAEDTATYYCAKVAGGCNSGYCRDSPGSIDAWGHGTEVIVS
VL: AVTQQPASVSANPGETVKITCSGGGSRNYYGWYQQKSPGSVPVTVIYYDDQRPSNIPSRFSGALSGSTSTLTITGVQADDEAVYFCGSADSNTYEGSFGAGTTLTVL
B11: Fab complex #13 (Fab, V domains shown)
VH: B1 VH
VL: B1 VL
B12: Fab complex #14 (Fab, V domains shown)
VH: B2 VH
VL: B2 VL
B13: Fab complex #30 (Fab, V domains shown)
VH: B3 VH
VL: B3 VL
B14: Fab complex #36 (Fab, V domains shown)
VH: B4 VH
VL: B4 VL
B15: Fab complex #37 (Fab, V domains shown)
VH: B4 VH with Y94F
VL: B4 VL
B16: Fab complex #38 (Fab, V domains shown)
VH: B4 VH
VL: B6 VL
B17: Fab complex #39 (Fab, V domains shown)
VH: B4 VH with Y94F
VL: B6 VL with Q2I, I87T
B18: Fab complex #40 (Fab, V domains shown)
VH: B4 VH
VL: B6 VL with Q2I, I87T

Biological target: T1, human CAPRIN-1 on the cell membrane surface of human cancer cells (human)
Assay: flow cytometry, human cancer cells

binding, binds:
B1
B2
B3
B4
B5
B6
B7
B8
B9
B10
B11
B12
B13
B14
B15
B16
B17
B18

Biological target: T2, mouse CAPRIN-1 on the cell membrane surface of mouse cancer cells (mouse)
Assay: flow cytometry, 4T1

binding, binds:
B1
B2
B3
B4
B5
B6
B7
B8
B9
B10
B11
B12
B13
B14
B15
B16
B17
B18

Biological target: T1, human CAPRIN-1 on the cell membrane surface of human cancer cells (human)
Assay: flow cytometry, HT29

binding, binds:
B1
B2
B3
B4
B5
B6
B7
B8
B9
B10
B11
B12
B13
B14
B15
B16
B17
B18

Biological target: T2, mouse CAPRIN-1 on the cell membrane surface of mouse cancer cells (mouse)
Assay: flow cytometry, mouse cancer cells

binding, binds:
B1
B2
B3
B4
B5
B6
B7
B8
B9
B10
B11
B12
B13
B14
B15
B16
B17
B18
